Data taken from ChEMBL document CHEMBL3988442, “University of Dundee, Small-Polar-MMV Screening Library” (2021).

Mtb growth Cornell: 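Whole-cell assay for inhibitors of Mycobacterium tuberculosis growth, labelled Cornell in the record; the read-out is not stated. The concentration is filed as 10 mM, unlikely as a test dose, so the dose is not known. The record gives no direction; compounds strong in two other growth screens of this library score well above the rest, so higher reads as stronger inhibition. About 53,000 compounds were tested under these conditions; 1.7% (about 900) showed 50% or more at least once.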
Mtb heat-shock: 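Assay on Mycobacterium tuberculosis, filed only as a heat shock assay from Cornell; the read-out is not stated. The concentration is filed as 10 mM, unlikely as a test dose, so the dose is not known. The record gives no direction; compounds that gave an IC50 in retests scored well above the rest, so higher reads as stronger inhibition. Of about 69,000 compounds tested this way, about 930 (1.4%) reached 50% or more in at least one test.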

The filed quantity is “Percent Effect” (%).
The controls that fix the scale are not given in the record; negative values are as filed.
Compounds were drawn at random from those tested, without regard to their results.
A dash means the value is not listed here; it may have been measured.

SMILES | Mtb growth Cornell | Mtb heat-shock
CN(Cc1noc(C2CC2)n1)C1CCN(Cc2nc(C3CC3)no2)C1 (stereo not given) | 1.248 | -12.09
NC(=O)C(NCCc1ccc(Cl)s1)c1ccccc1 (stereo not given) | 19.51 | -3.203
Cc1nn(C)c(N2CCOCC2)c1CNCC1CCN(C2CC2)C1 (stereo not given) | -15.26 | 11.72
CO[C@H]1CN(Cc2cc(Cn3cncn3)c(C)cc2C)CC[C@H]1N | 10.42 | 15.11
Cc1ccc(S(=O)(=O)Cc2nnc(C)n2C)cc1 | -12.94 | -0.3527
COCC1CN(Cc2ccc(F)cc2)Cc2nnn(CC3CC3)c21.O=C(O)C(F)(F)F (stereo not given) | -1.343 | -6.603
O=C(CCc1ccccc1)NCC1CCN(Cc2ccsc2)CC1 | -20.11 | -20.67
Cc1ccc(-c2nnc(CCC(=O)N3CCCC3c3ccc[nH]3)o2)cc1 (stereo not given) | 45.95 | 14.89
CC(C)CC1(C(=O)NCc2nncn2C2CC2)CCC1 | 22.59 | 2.454
Cc1ncccc1CNCC1CCN(CC(C)O)CC1 (stereo not given) | -13.7 | -6.875
c1ncn(CC2CN(Cc3csc(C4CCCC4)n3)CCO2)n1 (stereo not given) | 21.07 | -17.34
CCN(CC)C(=O)Nc1cccc(Oc2ccccn2)c1 | -25.74 | -8.293
COCCN(CCOC)c1ncccc1I | -33.92 | -4.241
O=C(C1CC1)N1CCC2(COCc3cnc(NCc4ccco4)nc32)C1 (stereo not given) | - | -40.08
O=C(c1ccncc1F)N1CCc2ncnc(N3CCOCC3)c2CC1 | 10.79 | 0.24
Cl.NC(=O)C1CNCCN1C(=O)COc1ccccc1 (stereo not given) | 7.052 | -11.48
O=C(Nc1cccc(C2SCCS2)c1)C1CCCN1c1nccs1 (stereo not given) | - | 8.15
N#CC1(C(=O)N2CCN(Cc3ccon3)CC2)CCC1 | -4.515 | 10.73
CC(C(=O)NCC1CCCCC1)S(=O)(=O)Cc1csc(-c2cccs2)n1 (stereo not given) | 28.7 | 5.993
CCC(C)(C)NC(=O)c1scnc1Cl | -27.78 | -9.355
COC(=O)CN1Cc2cc3c(cc2NCCC1=O)OCO3 | -54.97 | -3.103
COCCN(Cc1cnn(C)c1)c1nc(C)nc2sccc12 | -8.973 | -2.111
Cc1cc(N2CCOC(C(F)(F)F)C2)nc(-c2ccccc2)n1 (stereo not given) | 15.88 | -6.98
COCCOc1ccc(NC(=O)C2CC(=O)N(CC3CC3)C2)cn1 (stereo not given) | -41.4 | -1.475
O=C(c1cnccn1)N1CCCC(Cn2cc(C3CCCC3)nn2)C1 (stereo not given) | 0.7862 | 32.48
CN1CCN(C2CCN(Cc3ccc(Cl)cc3)CC2)C1=O | 7.202 | -18.46
O=C(O)C(F)(F)F.[H][C@@]12CCN(Cc3scnc3C)C[C@@]1([H])O[C@@H](c1noc(C)n1)C2 | -6.766 | 12.8
CC(C)n1nnc(CC(=O)NCC2(c3ccccc3F)CCCC2)n1 | 6.005 | 6.671
COCCN1CCC(CNC(=O)Nc2ccc(F)c(Cl)c2)C1 (stereo not given) | -22.77 | -12.59
Cc1ccccc1CN(C)C(=O)CN1CCCCC1Cn1cncn1 (stereo not given) | - | 4.138
O=C(O)C(F)(F)F.[H][C@@]12CCN(c3cccc(F)c3)C[C@@]1([H])O[C@@H](C(=O)N1CCCCO1)C2 | 16.02 | -4.333
CC(C)n1cc(CN2CCCN(C(=O)c3ccoc3)CC2)cn1 | -3.867 | -28.19
O=C(NC1CCN(Cn2nc(-c3ccccc3)oc2=O)CC1)C1CC1 | - | -2.08
CS(=O)(=O)N1CCN(C(=O)CN2CCCc3c(F)cc(F)cc32)CC1 | -20.19 | -9.345
CCC(C)NC(=O)c1ccc(-c2ccco2)[nH]c1=O (stereo not given) | 26.77 | 1.14
O=C(O)C(F)(F)F.[H][C@]12CCCN(Cc3nccs3)[C@@]1([H])CN(S(C)(=O)=O)C2 | -23.19 | -32.52
Cc1noc(-c2ccc(N(C)Cc3ccncc3C)nc2)n1 | 15.07 | -16.07
Cc1cc(C)n(C2CN(c3ncnc4[nH]ccc34)C2)n1 | -54.22 | -39.44
Fc1ccc(NCc2nnsc2Cl)c(OC(F)F)c1 | - | -30.32
Cc1cc2c(N3CCC(N(C)CCc4cnn(C)c4)CC3)ncnc2s1 | -23.33 | -25.99
CC[C@@H](CO)Nc1cc(-c2cn[nH]c2)ncn1 | -29.09 | -16.38
CCN(C(=O)CCc1ccc2[nH]ccc2c1)C1CC(=O)NC1=O (stereo not given) | 14.54 | -11.27
Cc1cccc(C)c1NC(=O)c1n[nH]c(-n2cnnc2)n1 | -0.6795 | -9.388
CN(C)c1cc(C(=O)Nc2cccnc2N2CCSCC2)ccn1 | 4.972 | 3.408
CC(C1CCN(Cc2ccc(OC(F)F)cc2)CC1)N1CCOCC1 (stereo not given) | -11.28 | 96.37
CCn1ccnc1CN1CCN(CC(=O)NC(C2CC2)C2CC2)CC1 | - | -28.41
CCc1cnc(CN(C)C(=O)NC2CCN(C)C2=O)s1 (stereo not given) | -4.886 | 14.36
CS(=O)(=O)NCCNC(=O)C1(c2ccc(F)cc2)CC1 | -5.784 | 21.94
COCC(O)CN1CC(C)(C)CN(C(=O)CCc2ccccc2)CC1=O (stereo not given) | -1.029 | 27.88
Cc1cnc(C(=O)N2CCCN(Cc3cnn(C(C)C)c3)CC2)cn1 | -12.87 | -14.61
CCCC(NC(=O)c1ccccn1)c1nnc2ccccn12 (stereo not given) | - | -4.17
COc1ncccc1-c1nc(-c2ccccn2)nn1C1CCN(C)CC1 | 10.03 | 10.38
CC(C)=CCN1CCC(c2nccn2Cc2cscn2)CC1 | -26.25 | 12.67
Cc1n[nH]c(C)c1Sc1ccccc1NC(=O)N1CCOCC1 | 28.01 | -30.43
Cc1cc(C2CCCN(Cc3noc(Cc4ccccc4)n3)C2)n[nH]1 (stereo not given) | -2.603 | 9.202
Cc1cc(C)c2cc(CNCc3ccco3)c3nn(C)c(=O)n3c2c1 | -10.61 | -12.96
CC(C)[C@H]1CN(C2Cc3ccccc3C2)C[C@@H]1NS(C)(=O)=O | -22.81 | -2.476
O=C(Cc1cccnc1)NC1COc2ccccc2C1=O (stereo not given) | - | -24.47